A short description of this data set: Organic thin film transistor (OTFT) device characterization. The settings on record: gold top electrodes; for Mobility: hole mobility; for Mobility / On/Off ratio: semiconductor/polystyrene blend knife coated from n-butylbenzene on HMDS-treated Si wafer, Vg +10 to −40 V, Vds −40 V, ambient; for Hole mobility μ: semiconductor/polystyrene blend knife coated from n-butylbenzene on HMDS-treated substrate, saturation mobility from Id^1/2−Vg fit.

For the compound `CC(C)[Si](C#Cc1c2ccc(-c3cccs3)cc2c(C#C[Si](C(C)C)(C(C)C)C(C)C)c2ccc(-c3cccs3)cc12)(C(C)C)C(C)C` [Example 1, 2,6-Bis(thiophene-2-yl)-9,10-bis-[(triisopropylsilyl)ethynyl]anthracene], the Mobility amounted to 0.22 cm^2/V • s and the “Hole mobility μ” value is 0.22 cm^2/Vs. For the same compound, the On/Off ratio (listed as BT-TIPS-An) was 2×10^5.

With `Cc1ccc(-c2ccc3c(C#C[Si](C(C)C)(C(C)C)C(C)C)c4cc(-c5ccc(C)s5)ccc4c(C#C[Si](C(C)C)(C(C)C)C(C)C)c3c2)s1` [Example 2, 2,6-Bis(5-methyl-thiophene-2-yl)-9,10-bis-[(triisopropylsilyl)ethynyl]anthracene], the Mobility came out at 0.12 cm^2/V • s and the “Hole mobility μ” value stood at 0.12 cm^2/Vs. In addition, under “listed as B5MT-TIPS-An”, the On/Off ratio is given as 1×10^4.

Consider `CCc1ccc(-c2ccc3c(C#C[Si](C(C)C)(C(C)C)C(C)C)c4cc(-c5ccc(CC)s5)ccc4c(C#C[Si](C(C)C)(C(C)C)C(C)C)c3c2)s1` [Example 4, 2,6-Bis(5-ethyl-thiophene-2-yl)-9,10-bis-[(triisopropylsilyl)ethynyl]anthracene], for which the Mobility is 0.003 cm^2/V • s and the “Hole mobility μ” value was 0.003 cm^2/Vs. For the same compound, the On/Off ratio (listed as B5ET-TIPS-An) was 2×10^3.

On to `CCCc1ccc(-c2ccc3c(C#C[Si](C(C)C)(C(C)C)C(C)C)c4cc(-c5ccc(CCC)s5)ccc4c(C#C[Si](C(C)C)(C(C)C)C(C)C)c3c2)s1` [Example 5, 2,6-Bis(5-propyl-thiophene-2-yl)-9,10-bis-[(triisopropylsilyl)ethynyl]anthracene], for which the Mobility worked out at 0.0018 cm^2/V • s and the “Hole mobility μ” value is 1.8×10^−3 cm^2/Vs. Also, the On/Off ratio (listed as B5PT-TIPS-An) is listed as 1×10^3.

For the compound `CCCCCCc1ccc(-c2ccc3c(C#C[Si](C(C)C)(C(C)C)C(C)C)c4cc(-c5ccc(CCCCCC)s5)ccc4c(C#C[Si](C(C)C)(C(C)C)C(C)C)c3c2)s1` [Example 6, 2,6-Bis(5-hexyl-thiophene-2-yl)-9,10-bis-[(triisopropylsilyl)ethynyl]anthracene], the Mobility stood at 0.013 cm^2/V • s and the “Hole mobility μ” value turned out to be 0.013 cm^2/Vs. The On/Off ratio (listed as B5HT-TIPS-An) is recorded as 3×10^3.

On to `CC(C)[Si](C#Cc1c2ccc(-c3ccc(-c4cccs4)s3)cc2c(C#C[Si](C(C)C)(C(C)C)C(C)C)c2ccc(-c3ccc(-c4cccs4)s3)cc12)(C(C)C)C(C)C` [Example 8, 2,6-Bis(2,2′-bithiophene-5-yl)-9,10-bis-[(triisopropylsilyl)ethynyl]anthracene], for which the Mobility amounted to 0.07 cm^2/V • s and the “Hole mobility μ” value is listed as 0.07 cm^2/Vs. Under “listed as B5TT-TIPS-An”, the On/Off ratio was 5×10^3.

Regarding `CC(C)[Si](C#Cc1c2ccc(-c3ccc(C=O)s3)cc2c(C#C[Si](C(C)C)(C(C)C)C(C)C)c2ccc(-c3ccc(C=O)s3)cc12)(C(C)C)C(C)C` [Example 9, 2,6-Bis(5-formyl-thiophene-2-yl)-9,10-bis-[(triisopropylsilyl)ethynyl]anthracene], the Mobility is recorded as 0.01 cm^2/V • s and the “Hole mobility μ” value was 0.01 cm^2/Vs. Further, for the setting “listed as B5FT-TIPS-An”, the On/Off ratio is reported as 1×10^2.

Source of the values: patent US8178873B2, “Solution processable organic semiconductors” (3M Innovative Properties Company, priority 2007, dated 2012).
